Test results as given in the supplement of paper PMC7661543.
± gives the standard deviation of the averaged measurements. The effect of the compound repeats well; differences between the knockouts mostly do not.

System: SKBR3
Assay: relative cell number vs DMSO control (72 h) (% of DMSO); higher = less growth inhibition (more cells)
Description: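 QMAP-Seq: a pool of 5 breast cancer cell lines (ZR-75-1, SKBR3, HCC-38, MDA-MB-231, BT-20), each carrying 12 doxycycline-inducible Cas9 sgRNA perturbations (11 knockouts plus non-targeting sgNT), was treated with compounds for 72 h at four 10-fold doses (10 nM-10 uM or 1 nM-1 uM range). Barcodes were amplified and sequenced, and cell number was interpolated from 293T spike-in standard curves. The result is expressed as % of the median of DMSO wells. Two biological replicates.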

Cc1cc2c(F)c(Oc3ncnn4cc(OC[C@@H](C)O)c(C)c34)ccc2[nH]1 [Brivanib]
Settings	relative cell number
sgRNA knockout: sgATF3, 10 nM	89.4 ± 27
sgRNA knockout: sgATF3, 100 nM	88.5 ± 16
sgRNA knockout: sgATF3, 1000 nM	83.3 ± 8.6
sgRNA knockout: sgATF3, 10000 nM	82.4 ± 21
sgRNA knockout: sgATF4, 10 nM	111 ± 16
sgRNA knockout: sgATF4, 100 nM	81.8 ± 15
sgRNA knockout: sgATF4, 1000 nM	88.7 ± 8
sgRNA knockout: sgATF4, 10000 nM	80.97 ± 0.35
sgRNA knockout: sgATF6, 10 nM	92 ± 14
sgRNA knockout: sgATF6, 100 nM	83.4 ± 5.3
sgRNA knockout: sgATF6, 1000 nM	107 ± 13
sgRNA knockout: sgATF6, 10000 nM	70.8 ± 13
sgRNA knockout: sgATG7, 10 nM	108 ± 1.3
sgRNA knockout: sgATG7, 100 nM	89.1 ± 8.4
sgRNA knockout: sgATG7, 1000 nM	110 ± 3.2
sgRNA knockout: sgATG7, 10000 nM	81.8 ± 11
sgRNA knockout: sgERN1, 10 nM	78.9 ± 27
sgRNA knockout: sgERN1, 100 nM	71.3 ± 22
sgRNA knockout: sgERN1, 1000 nM	111 ± 5.6
sgRNA knockout: sgERN1, 10000 nM	66.6 ± 7.2
sgRNA knockout: sgHSF1, 10 nM	95 ± 3.7
sgRNA knockout: sgHSF1, 100 nM	79.1 ± 25
sgRNA knockout: sgHSF1, 1000 nM	100 ± 4.5
sgRNA knockout: sgHSF1, 10000 nM	76.5 ± 0.96
sgRNA knockout: sgHSF2, 10 nM	94.2 ± 2.9
sgRNA knockout: sgHSF2, 100 nM	75.9 ± 18
sgRNA knockout: sgHSF2, 1000 nM	107 ± 19
sgRNA knockout: sgHSF2, 10000 nM	73.1 ± 2.2
sgRNA knockout: sgKEAP1, 10 nM	97.3 ± 20
sgRNA knockout: sgKEAP1, 100 nM	79.3 ± 10
sgRNA knockout: sgKEAP1, 1000 nM	83.4 ± 22
sgRNA knockout: sgKEAP1, 10000 nM	64.5 ± 3.7
sgRNA knockout: sgNFE2L2, 10 nM	99.3 ± 13
sgRNA knockout: sgNFE2L2, 100 nM	70.2 ± 14
sgRNA knockout: sgNFE2L2, 1000 nM	94.5 ± 19
sgRNA knockout: sgNFE2L2, 10000 nM	89.3 ± 16
sgRNA knockout: sgSLC35F2, 10 nM	106 ± 23
sgRNA knockout: sgSLC35F2, 100 nM	80 ± 13
sgRNA knockout: sgSLC35F2, 1000 nM	81.1 ± 14
sgRNA knockout: sgSLC35F2, 10000 nM	68.1 ± 15
sgRNA knockout: sgXBP1, 10 nM	93.2 ± 1.4
sgRNA knockout: sgXBP1, 100 nM	73.7 ± 9.4
sgRNA knockout: sgXBP1, 1000 nM	113 ± 8.6
sgRNA knockout: sgXBP1, 10000 nM	83 ± 5.5

O=C(O)CCCc1ccc(N(CCCl)CCCl)cc1 [Chlorambucil]
Settings	relative cell number
sgRNA knockout: sgATF3, 10 nM	121 ± 36
sgRNA knockout: sgATF3, 100 nM	96 ± 8.8
sgRNA knockout: sgATF3, 1000 nM	122 ± 10
sgRNA knockout: sgATF3, 10000 nM	67.5 ± 17
sgRNA knockout: sgATF4, 10 nM	81 ± 22
sgRNA knockout: sgATF4, 100 nM	85.5 ± 6.5
sgRNA knockout: sgATF4, 1000 nM	88.9 ± 16
sgRNA knockout: sgATF4, 10000 nM	75.9 ± 12
sgRNA knockout: sgATF6, 10 nM	86.3 ± 6.7
sgRNA knockout: sgATF6, 100 nM	89.8 ± 17
sgRNA knockout: sgATF6, 1000 nM	102 ± 12
sgRNA knockout: sgATF6, 10000 nM	61.9 ± 10
sgRNA knockout: sgATG7, 10 nM	113 ± 4.8
sgRNA knockout: sgATG7, 100 nM	92.8 ± 27
sgRNA knockout: sgATG7, 1000 nM	85.1 ± 18
sgRNA knockout: sgATG7, 10000 nM	62.1 ± 3
sgRNA knockout: sgERN1, 10 nM	108 ± 49
sgRNA knockout: sgERN1, 100 nM	95.6 ± 3
sgRNA knockout: sgERN1, 1000 nM	98 ± 13
sgRNA knockout: sgERN1, 10000 nM	86.5 ± 22
sgRNA knockout: sgHSF1, 10 nM	81.3 ± 53
sgRNA knockout: sgHSF1, 100 nM	83.4 ± 1.4
sgRNA knockout: sgHSF1, 1000 nM	67.69 ± 0.61
sgRNA knockout: sgHSF1, 10000 nM	65.1 ± 2.8
sgRNA knockout: sgHSF2, 10 nM	101 ± 11
sgRNA knockout: sgHSF2, 100 nM	70.3 ± 9.1
sgRNA knockout: sgHSF2, 1000 nM	78.3 ± 5.4
sgRNA knockout: sgHSF2, 10000 nM	76.5 ± 17
sgRNA knockout: sgKEAP1, 10 nM	81.7 ± 5.4
sgRNA knockout: sgKEAP1, 100 nM	87.07 ± 0.68
sgRNA knockout: sgKEAP1, 1000 nM	82.2 ± 15
sgRNA knockout: sgKEAP1, 10000 nM	64.1 ± 2.5
sgRNA knockout: sgNFE2L2, 10 nM	87.5 ± 22
sgRNA knockout: sgNFE2L2, 100 nM	94.5 ± 14
sgRNA knockout: sgNFE2L2, 1000 nM	75.1 ± 30
sgRNA knockout: sgNFE2L2, 10000 nM	77.7 ± 14
sgRNA knockout: sgSLC35F2, 10 nM	90.5 ± 21
sgRNA knockout: sgSLC35F2, 100 nM	79.4 ± 27
sgRNA knockout: sgSLC35F2, 1000 nM	83.03 ± 0.53
sgRNA knockout: sgSLC35F2, 10000 nM	61.6 ± 11
sgRNA knockout: sgXBP1, 10 nM	95.3 ± 18
sgRNA knockout: sgXBP1, 100 nM	89.7 ± 29
sgRNA knockout: sgXBP1, 1000 nM	77.9 ± 19
sgRNA knockout: sgXBP1, 10000 nM	72.6 ± 16

Nc1nc(Cl)nc2c1ncn2[C@@H]1O[C@H](CO)[C@@H](O)[C@@H]1F [Clofarabine]
Settings	relative cell number
sgRNA knockout: sgATF3, 10 nM	118 ± 4
sgRNA knockout: sgATF3, 100 nM	41.6 ± 3.8
sgRNA knockout: sgATF3, 1000 nM	13.1 ± 2.9
sgRNA knockout: sgATF3, 10000 nM	12.7 ± 1.1
sgRNA knockout: sgATF4, 10 nM	92.3 ± 26
sgRNA knockout: sgATF4, 100 nM	41.5 ± 6.1
sgRNA knockout: sgATF4, 1000 nM	15.43 ± 0.057
sgRNA knockout: sgATF4, 10000 nM	16.4 ± 6.8
sgRNA knockout: sgATF6, 10 nM	79.3 ± 3.7
sgRNA knockout: sgATF6, 100 nM	40.55 ± 0.23
sgRNA knockout: sgATF6, 1000 nM	14.1 ± 3.4
sgRNA knockout: sgATF6, 10000 nM	8.08 ± 6
sgRNA knockout: sgATG7, 10 nM	72.7 ± 5.5
sgRNA knockout: sgATG7, 100 nM	41.1 ± 11
sgRNA knockout: sgATG7, 1000 nM	10.3 ± 3.5
sgRNA knockout: sgATG7, 10000 nM	15.1 ± 4
sgRNA knockout: sgERN1, 10 nM	94.9 ± 22
sgRNA knockout: sgERN1, 100 nM	47.8 ± 5.5
sgRNA knockout: sgERN1, 1000 nM	10.5 ± 5.8
sgRNA knockout: sgERN1, 10000 nM	19.6 ± 3.3
sgRNA knockout: sgHSF1, 10 nM	92.5 ± 12
sgRNA knockout: sgHSF1, 100 nM	50.6 ± 5.2
sgRNA knockout: sgHSF1, 1000 nM	15.2 ± 3.8
sgRNA knockout: sgHSF1, 10000 nM	13.9 ± 1.3
sgRNA knockout: sgHSF2, 10 nM	89 ± 8.1
sgRNA knockout: sgHSF2, 100 nM	40 ± 10
sgRNA knockout: sgHSF2, 1000 nM	13 ± 0.71
sgRNA knockout: sgHSF2, 10000 nM	19.4 ± 0.85
sgRNA knockout: sgKEAP1, 10 nM	85.2 ± 16
sgRNA knockout: sgKEAP1, 100 nM	53.8 ± 1.1
sgRNA knockout: sgKEAP1, 1000 nM	15.1 ± 0.94
sgRNA knockout: sgKEAP1, 10000 nM	15.2 ± 0.93
sgRNA knockout: sgNFE2L2, 10 nM	90.4 ± 5.2
sgRNA knockout: sgNFE2L2, 100 nM	41.5 ± 4.8
sgRNA knockout: sgNFE2L2, 1000 nM	13.9 ± 5.1
sgRNA knockout: sgNFE2L2, 10000 nM	17.1 ± 0.21
sgRNA knockout: sgSLC35F2, 10 nM	68.2 ± 14
sgRNA knockout: sgSLC35F2, 100 nM	34.9 ± 8.7
sgRNA knockout: sgSLC35F2, 1000 nM	14.1 ± 3.3
sgRNA knockout: sgSLC35F2, 10000 nM	14.2 ± 1.3
sgRNA knockout: sgXBP1, 10 nM	79.6 ± 5.3
sgRNA knockout: sgXBP1, 100 nM	38.1 ± 5.6
sgRNA knockout: sgXBP1, 1000 nM	11.3 ± 0.51
sgRNA knockout: sgXBP1, 10000 nM	11.7 ± 2.9
